Experimental data as given in paper PMC8384837.
Where a chain is given by its changes, count along the chain named. Some of the results follow. For some of these results: At the low end of the ranking the order means little. For some of these results: The source does not settle which construct or isoform was used.

Assays:
Conditions in all cases: yeast three-hybrid, YBZ-1, SC-Leu-His + 0.5 mM 3-AT, 4 days
[1] = target: T1, PUM1 PUF domain R1-QFR R2-VFQ R7-NPG S863Q + R864F + Q867R + N899V + Y900F + S1079N + N1080P + E1083G (UniProt Q14671)
T1 sequence: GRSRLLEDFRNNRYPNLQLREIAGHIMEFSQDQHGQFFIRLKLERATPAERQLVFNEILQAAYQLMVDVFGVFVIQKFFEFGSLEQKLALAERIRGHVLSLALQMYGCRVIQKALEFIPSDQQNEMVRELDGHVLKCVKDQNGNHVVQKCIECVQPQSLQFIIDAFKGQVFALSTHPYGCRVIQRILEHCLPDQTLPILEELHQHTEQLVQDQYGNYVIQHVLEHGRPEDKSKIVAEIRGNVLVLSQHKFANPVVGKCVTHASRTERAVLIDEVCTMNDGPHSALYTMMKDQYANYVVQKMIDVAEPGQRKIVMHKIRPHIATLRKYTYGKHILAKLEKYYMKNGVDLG

[2] = target: T2, PUM1 PUF domain R3-THE R4-TFR C935T + R936H + Q939E + N971T + H972F + Q975R (UniProt Q14671)
T2 sequence: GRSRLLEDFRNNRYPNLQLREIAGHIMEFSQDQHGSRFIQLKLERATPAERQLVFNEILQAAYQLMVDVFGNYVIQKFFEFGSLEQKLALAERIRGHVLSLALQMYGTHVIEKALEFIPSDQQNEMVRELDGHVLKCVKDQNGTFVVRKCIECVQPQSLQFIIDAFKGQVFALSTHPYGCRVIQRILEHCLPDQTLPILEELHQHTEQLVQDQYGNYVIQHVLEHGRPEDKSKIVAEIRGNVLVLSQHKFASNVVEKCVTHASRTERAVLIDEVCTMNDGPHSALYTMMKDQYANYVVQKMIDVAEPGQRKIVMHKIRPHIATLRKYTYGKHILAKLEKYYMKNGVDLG

[3] = target: T3, PUM1 PUF domain R6-SWD R7-NPG N1043S + Y1044W + Q1047D + S1079N + N1080P + E1083G (Homo sapiens) (UniProt Q14671)
T3 sequence: T1 sequence with Q36S, F37R, R40Q, V72N, F73Y, N216S, Y217W, Q220D

[4] = target: T4, PUM1 PUF domain R3-THE R4-TFR R7-NPG C935T + R936H + Q939E + N971T + H972F + Q975R + S1079N + N1080P + E1083G (UniProt Q14671)
T4 sequence: T2 sequence with S252N, N253P, E256G

[5] = target: T5, PUM1 PUF domain R3-THE R4-TFR R7-NPG C935T + R936H + Q939E + N971T + H972F + Q975R + S1079N + N1080P + E1083G (Homo sapiens) (UniProt Q14671)
T5 sequence: T2 sequence with S252N, N253P, E256G

[6] = target: T6, PUM1 PUF domain R5-PHQ R6-SWD C1007P + R1008H + N1043S + Y1044W + Q1047D (UniProt Q14671)
T6 sequence: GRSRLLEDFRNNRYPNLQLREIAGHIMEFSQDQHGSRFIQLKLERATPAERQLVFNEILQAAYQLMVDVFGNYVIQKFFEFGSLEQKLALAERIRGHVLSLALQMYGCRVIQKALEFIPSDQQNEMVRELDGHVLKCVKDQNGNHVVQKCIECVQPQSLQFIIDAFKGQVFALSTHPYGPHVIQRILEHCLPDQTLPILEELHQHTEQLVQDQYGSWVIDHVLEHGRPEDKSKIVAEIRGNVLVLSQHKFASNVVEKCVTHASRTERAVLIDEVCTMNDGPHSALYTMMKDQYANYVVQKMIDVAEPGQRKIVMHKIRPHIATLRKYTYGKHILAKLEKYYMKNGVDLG

[7] = target: T7, PUM1 PUF domain R2-VFQ R3-THE R4-TFR N899V + Y900F + C935T + R936H + Q939E + N971T + H972F + Q975R (UniProt Q14671)
T7 sequence: T2 sequence with N72V, Y73F

GGCUAGAACUAGUGGAUCCCCCGGCGCCCGGCGGCUCGAGCCCGGGUAAGCGGAAAAAGUCUGCAUGCCGCCGGGCGCCAUGCCUGCAGGUCGACUCUAGAAAACAUG
binding signal (log2 enrichment (interaction score)) [1]: -5.1 | binding signal (log2 enrichment (interaction score)) [2]: -6.67 | binding signal (log2 enrichment (interaction score)) [3]: -1.47

GGCUAGAACUAGUGGAUCCCCCGGCGCCCGGCGGCUCGAGCCCGGGUAAGGUUACUUGGUCUGCAUGCCGCCGGGCGCCAUGCCUGCAGGUCGACUCUAGAAAACAUG
binding signal (log2 enrichment (interaction score)) [1]: -5.54 | binding signal (log2 enrichment (interaction score)) [4]: -2.39

GGCUAGAACUAGUGGAUCCCCCGGCGCCCGGCGGCUCGAGCCCGGGUAAGCUGAACUAGUCUGCAUGCCGCCGGGCGCCAUGCCUGCAGGUCGACUCUAGAAAACAUG
binding signal (log2 enrichment (interaction score)) [1]: -6.26 | binding signal (log2 enrichment (interaction score)) [5]: -1.61 | binding signal (log2 enrichment (interaction score)) [3]: -1.38

GGCUAGAACUAGUGGAUCCCCCGGCGCCCGGCGGCUCGAGCCCGGGUAAGAUUAAAAUGUCUGCAUGCCGCCGGGCGCCAUGCCUGCAGGUCGACUCUAGAAAACAUG
binding signal (log2 enrichment (interaction score)) [1]: < -5.81 | binding signal (log2 enrichment (interaction score)) [4]: -2.03

GGCUAGAACUAGUGGAUCCCCCGGCGCCCGGCGGCUCGAGCCCGGGUAAGUUGGGAUGGUCUGCAUGCCGCCGGGCGCCAUGCCUGCAGGUCGACUCUAGAAAACAUG
binding signal (log2 enrichment (interaction score)) [1]: -7.07 | binding signal (log2 enrichment (interaction score)) [5]: -1.68

GGCUAGAACUAGUGGAUCCCCCGGCGCCCGGCGGCUCGAGCCCGGGUAAGCCGCAAUGGUCUGCAUGCCGCCGGGCGCCAUGCCUGCAGGUCGACUCUAGAAAACAUG
binding signal (log2 enrichment (interaction score)) [1]: -6.07 | binding signal (log2 enrichment (interaction score)) [5]: < -1.23 | binding signal (log2 enrichment (interaction score)) [6]: < -7.67

GGCUAGAACUAGUGGAUCCCCCGGCGCCCGGCGGCUCGAGCCCGGGUAAGUGGGAGUAGUCUGCAUGCCGCCGGGCGCCAUGCCUGCAGGUCGACUCUAGAAAACAUG
binding signal (log2 enrichment (interaction score)) [1]: -6.35 | binding signal (log2 enrichment (interaction score)) [5]: < -0.46 | binding signal (log2 enrichment (interaction score)) [6]: < -7.3

GGCUAGAACUAGUGGAUCCCCCGGCGCCCGGCGGCUCGAGCCCGGGUAAGUGGCAAAAGUCUGCAUGCCGCCGGGCGCCAUGCCUGCAGGUCGACUCUAGAAAACAUG
binding signal (log2 enrichment (interaction score)) [1]: -5.94 | binding signal (log2 enrichment (interaction score)) [5]: -0.64 | binding signal (log2 enrichment (interaction score)) [6]: -8.04

GGCUAGAACUAGUGGAUCCCCCGGCGCCCGGCGGCUCGAGCCCGGGUAAGUGUUAGACGUCUGCAUGCCGCCGGGCGCCAUGCCUGCAGGUCGACUCUAGAAAACAUG
binding signal (log2 enrichment (interaction score)) [1]: < -5.59 | binding signal (log2 enrichment (interaction score)) [4]: < -2.48

GGCUAGAACUAGUGGAUCCCCCGGCGCCCGGCGGCUCGAGCCCGGGUAAGGAUAUAUUGUCUGCAUGCCGCCGGGCGCCAUGCCUGCAGGUCGACUCUAGAAAACAUG
binding signal (log2 enrichment (interaction score)) [1]: -5.64 | binding signal (log2 enrichment (interaction score)) [4]: -2.19

GGCUAGAACUAGUGGAUCCCCCGGCGCCCGGCGGCUCGAGCCCGGGUAAGUUCAAACCGUCUGCAUGCCGCCGGGCGCCAUGCCUGCAGGUCGACUCUAGAAAACAUG
binding signal (log2 enrichment (interaction score)) [1]: -4.92 | binding signal (log2 enrichment (interaction score)) [5]: < -1.09 | binding signal (log2 enrichment (interaction score)) [6]: -7.68 | binding signal (log2 enrichment (interaction score)) [3]: 0.16

GGCUAGAACUAGUGGAUCCCCCGGCGCCCGGCGGCUCGAGCCCGGGUAAGGUUACAAAGUCUGCAUGCCGCCGGGCGCCAUGCCUGCAGGUCGACUCUAGAAAACAUG
binding signal (log2 enrichment (interaction score)) [1]: < -6.63 | binding signal (log2 enrichment (interaction score)) [4]: -2.46

GGCUAGAACUAGUGGAUCCCCCGGCGCCCGGCGGCUCGAGCCCGGGUAAGUUUUAAAAGUCUGCAUGCCGCCGGGCGCCAUGCCUGCAGGUCGACUCUAGAAAACAUG
binding signal (log2 enrichment (interaction score)) [1]: -5.46 | binding signal (log2 enrichment (interaction score)) [5]: < -1.89 | binding signal (log2 enrichment (interaction score)) [6]: < -7.35

GGCUAGAACUAGUGGAUCCCCCGGCGCCCGGCGGCUCGAGCCCGGGUAAGUUGAAGACGUCUGCAUGCCGCCGGGCGCCAUGCCUGCAGGUCGACUCUAGAAAACAUG
binding signal (log2 enrichment (interaction score)) [7]: -5.75

GGCUAGAACUAGUGGAUCCCCCGGCGCCCGGCGGCUCGAGCCCGGGUAAGUAAAAUACGUCUGCAUGCCGCCGGGCGCCAUGCCUGCAGGUCGACUCUAGAAAACAUG
binding signal (log2 enrichment (interaction score)) [1]: -5.69 | binding signal (log2 enrichment (interaction score)) [3]: -1.72

GGCUAGAACUAGUGGAUCCCCCGGCGCCCGGCGGCUCGAGCCCGGGUAAGCAUAGGGGGUCUGCAUGCCGCCGGGCGCCAUGCCUGCAGGUCGACUCUAGAAAACAUG
binding signal (log2 enrichment (interaction score)) [7]: -5.07

GGCUAGAACUAGUGGAUCCCCCGGCGCCCGGCGGCUCGAGCCCGGGUAAGUCGAAAUAGUCUGCAUGCCGCCGGGCGCCAUGCCUGCAGGUCGACUCUAGAAAACAUG
binding signal (log2 enrichment (interaction score)) [7]: -5.7

GGCUAGAACUAGUGGAUCCCCCGGCGCCCGGCGGCUCGAGCCCGGGUAAGUUCUCAACGUCUGCAUGCCGCCGGGCGCCAUGCCUGCAGGUCGACUCUAGAAAACAUG
binding signal (log2 enrichment (interaction score)) [1]: -4.24 | binding signal (log2 enrichment (interaction score)) [3]: -0.86

GGCUAGAACUAGUGGAUCCCCCGGCGCCCGGCGGCUCGAGCCCGGGUAAGCUUUAGACGUCUGCAUGCCGCCGGGCGCCAUGCCUGCAGGUCGACUCUAGAAAACAUG
binding signal (log2 enrichment (interaction score)) [1]: -6.01 | binding signal (log2 enrichment (interaction score)) [3]: -1.58

GGCUAGAACUAGUGGAUCCCCCGGCGCCCGGCGGCUCGAGCCCGGGUAAGUUAAGAACGUCUGCAUGCCGCCGGGCGCCAUGCCUGCAGGUCGACUCUAGAAAACAUG
binding signal (log2 enrichment (interaction score)) [7]: < -6.5

GGCUAGAACUAGUGGAUCCCCCGGCGCCCGGCGGCUCGAGCCCGGGUAAGUUUACGCGGUCUGCAUGCCGCCGGGCGCCAUGCCUGCAGGUCGACUCUAGAAAACAUG
binding signal (log2 enrichment (interaction score)) [7]: -5.52

GGCUAGAACUAGUGGAUCCCCCGGCGCCCGGCGGCUCGAGCCCGGGUAAGUGUCCCAAGUCUGCAUGCCGCCGGGCGCCAUGCCUGCAGGUCGACUCUAGAAAACAUG
binding signal (log2 enrichment (interaction score)) [1]: -6.2 | binding signal (log2 enrichment (interaction score)) [3]: -0.61

GGCUAGAACUAGUGGAUCCCCCGGCGCCCGGCGGCUCGAGCCCGGGUAAGUUUACGCCGUCUGCAUGCCGCCGGGCGCCAUGCCUGCAGGUCGACUCUAGAAAACAUG
binding signal (log2 enrichment (interaction score)) [7]: -5.12

GGCUAGAACUAGUGGAUCCCCCGGCGCCCGGCGGCUCGAGCCCGGGUAAGUUACCUCCGUCUGCAUGCCGCCGGGCGCCAUGCCUGCAGGUCGACUCUAGAAAACAUG
binding signal (log2 enrichment (interaction score)) [7]: -3.29

GGCUAGAACUAGUGGAUCCCCCGGCGCCCGGCGGCUCGAGCCCGGGUAAGUUGACGGCGUCUGCAUGCCGCCGGGCGCCAUGCCUGCAGGUCGACUCUAGAAAACAUG
binding signal (log2 enrichment (interaction score)) [7]: -5.08

GGCUAGAACUAGUGGAUCCCCCGGCGCCCGGCGGCUCGAGCCCGGGUAAGUUGCUGUCGUCUGCAUGCCGCCGGGCGCCAUGCCUGCAGGUCGACUCUAGAAAACAUG
binding signal (log2 enrichment (interaction score)) [7]: -6.02

GGCUAGAACUAGUGGAUCCCCCGGCGCCCGGCGGCUCGAGCCCGGGUAAGUUGGACACGUCUGCAUGCCGCCGGGCGCCAUGCCUGCAGGUCGACUCUAGAAAACAUG
binding signal (log2 enrichment (interaction score)) [1]: < -6.14 | binding signal (log2 enrichment (interaction score)) [3]: -0.89

GGCUAGAACUAGUGGAUCCCCCGGCGCCCGGCGGCUCGAGCCCGGGUAAGUUGUCCUCGUCUGCAUGCCGCCGGGCGCCAUGCCUGCAGGUCGACUCUAGAAAACAUG
binding signal (log2 enrichment (interaction score)) [1]: -5.88 | binding signal (log2 enrichment (interaction score)) [3]: -1.78
